Test [1] concerns the target Importin 8 (IPO8) (UniProt O15397). The experiment in a line: co-IP; HEK293T cells co-transfected with pcDNA3.1-IPO8 and pcDNA3.1-p65 for 24 h; lysate in immunoprecipitation buffer, protein A/G magnetic beads and antibodies, Western blotting. Background: Immunoblotting shows a protein as a band on a membrane.
The target of test [2] is IPO8 22–102 domain (UniProt O15397). Briefly: co-IP; HEK293T cells transfected with IPO8 22–102; lysate in immunoprecipitation buffer, protein A/G magnetic beads and antibodies, Western blotting.

Chains of the proteins cited; added tags and fusions are not shown. Lines headed by an entry give the natural chain unless they say otherwise; changes in a name come on top. Residues count along the entry.
UniProt O15397: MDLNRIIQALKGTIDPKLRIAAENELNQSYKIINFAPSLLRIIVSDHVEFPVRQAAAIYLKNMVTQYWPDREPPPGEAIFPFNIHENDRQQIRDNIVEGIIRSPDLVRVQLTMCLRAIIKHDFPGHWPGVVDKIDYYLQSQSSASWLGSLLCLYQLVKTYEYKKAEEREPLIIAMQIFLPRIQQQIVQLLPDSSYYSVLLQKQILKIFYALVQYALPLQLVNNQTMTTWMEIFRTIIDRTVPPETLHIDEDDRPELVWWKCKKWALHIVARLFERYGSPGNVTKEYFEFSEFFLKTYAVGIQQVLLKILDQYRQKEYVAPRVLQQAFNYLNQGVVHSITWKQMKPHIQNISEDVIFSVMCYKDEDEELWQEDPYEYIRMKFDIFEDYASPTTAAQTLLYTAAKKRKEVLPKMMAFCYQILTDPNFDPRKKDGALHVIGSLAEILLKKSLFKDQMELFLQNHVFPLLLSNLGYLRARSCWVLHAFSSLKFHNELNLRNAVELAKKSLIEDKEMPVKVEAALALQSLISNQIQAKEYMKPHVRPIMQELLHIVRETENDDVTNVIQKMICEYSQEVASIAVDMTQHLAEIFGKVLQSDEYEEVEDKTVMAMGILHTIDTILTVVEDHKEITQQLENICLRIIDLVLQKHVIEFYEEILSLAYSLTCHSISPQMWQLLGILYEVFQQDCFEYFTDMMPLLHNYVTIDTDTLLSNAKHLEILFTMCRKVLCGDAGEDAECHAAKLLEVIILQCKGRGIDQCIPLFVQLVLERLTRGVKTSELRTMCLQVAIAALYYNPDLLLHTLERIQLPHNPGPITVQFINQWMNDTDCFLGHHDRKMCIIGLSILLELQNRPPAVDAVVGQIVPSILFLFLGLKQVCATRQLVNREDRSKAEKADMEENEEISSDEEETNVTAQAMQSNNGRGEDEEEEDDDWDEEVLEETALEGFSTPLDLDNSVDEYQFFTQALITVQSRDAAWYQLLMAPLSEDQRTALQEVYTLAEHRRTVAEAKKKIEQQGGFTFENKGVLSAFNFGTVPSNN
IPO8 22–102 domain: residues 22-102 of O15397
UniProt Q04206: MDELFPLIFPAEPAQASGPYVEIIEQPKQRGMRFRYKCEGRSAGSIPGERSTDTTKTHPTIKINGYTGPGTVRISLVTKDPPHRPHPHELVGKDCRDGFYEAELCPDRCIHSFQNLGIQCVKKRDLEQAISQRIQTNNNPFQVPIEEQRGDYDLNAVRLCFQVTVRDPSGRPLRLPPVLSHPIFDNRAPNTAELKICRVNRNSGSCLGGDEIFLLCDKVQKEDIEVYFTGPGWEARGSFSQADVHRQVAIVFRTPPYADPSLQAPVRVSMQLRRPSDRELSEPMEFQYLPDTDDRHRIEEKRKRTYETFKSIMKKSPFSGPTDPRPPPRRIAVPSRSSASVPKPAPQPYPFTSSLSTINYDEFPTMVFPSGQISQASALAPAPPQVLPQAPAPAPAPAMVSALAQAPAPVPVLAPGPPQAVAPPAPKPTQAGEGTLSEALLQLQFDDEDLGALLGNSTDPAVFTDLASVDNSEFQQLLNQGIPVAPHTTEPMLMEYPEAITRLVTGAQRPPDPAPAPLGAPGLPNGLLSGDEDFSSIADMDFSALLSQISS

No constants are given. Whether binding was seen depends on the method and setting. Binding seen in cells or lysates may run through a third protein. Some entries that bind do so weakly or less than the wild type.

As to “NF-κB subunit p65 (from UniProt Q04206 1-551)”, in test [1], the binding result is listed as “binds”. Take “NF-κB subunit p65 (in HEK293T cells transfected with IPO8 22–102) (from UniProt Q04206 1-551)”: in test [2], the binding entry was “binds”.

The values are drawn from PMC12566618.
